Source: doi:10.1101/2022.08.14.503837
No constants are given. Whether binding was seen depends on the method and setting. In cells and extracts the contact can be indirect. Binding can be weak; no strength is given.

Biological target: Nucleoporin 98A (Glycine max (endogenous in etiolated hypocotyl nuclei)) (UniProt I1LVB2)
Assay: cross-linking

binding: binds
Substance: Ribonucleic Acid Export 1 (from UniProt I1JEL5)
